{"source": "PubChem BioAssay AID1159584 (Peter MacCallum Cancer Centre, 2016)", "purpose": "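Knock-downs that harm CDH1-null cells more than parental MCF10A cells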 (primary screen)", "cell system": "human MCF10A breast epithelial cells, parental and CDH1-null", "knock-down reagent": "siRNA against human genes", "read-out": "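ATP luminescence (CellTiter-Glo) viability per line relative to mean mock wells over all plates, and the ratio of CDH1-null to parental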", "reading the numbers": "CDH1-null / parental viability ratio: higher = CDH1-null cells survive relatively better than parental; CDH1-null viability vs mock: higher = more viable CDH1-null cells", "units": "CDH1-null viability vs mock in fraction of mock", "note": "The deposit covers about 18,000 reagents; shown is a random part of them. Further read-outs or replicates are left out here. No sequences are given here. Not given: the amount of reagent, the time to read-out."}
{"gene": "KRTAP19-6", "PubChem SID": "SID135623553", "CDH1-null / parental viability ratio": 0.95, "CDH1-null viability vs mock": 0.76}
{"gene": "MPLKIP", "PubChem SID": "SID134320375", "CDH1-null / parental viability ratio": 1.1, "CDH1-null viability vs mock": 0.86}
{"gene": "C2CD2L", "PubChem SID": "SID134322216", "CDH1-null / parental viability ratio": 1.12, "CDH1-null viability vs mock": 0.96}
{"gene": "NCOA1", "PubChem SID": "SID152155432", "CDH1-null / parental viability ratio": 0.88, "CDH1-null viability vs mock": 0.71}
{"gene": "THBS3", "PubChem SID": "SID134323414", "CDH1-null / parental viability ratio": 1.06, "CDH1-null viability vs mock": 0.76}
{"gene": "UBE2R2", "PubChem SID": "SID152149892", "CDH1-null / parental viability ratio": 1.14, "CDH1-null viability vs mock": 0.96}
{"gene": "MARCKS", "PubChem SID": "SID152148735", "CDH1-null / parental viability ratio": 0.88, "CDH1-null viability vs mock": 0.51}
{"gene": "GARIN2", "PubChem SID": "SID152156107", "CDH1-null / parental viability ratio": 0.85, "CDH1-null viability vs mock": 0.72}
{"gene": "HSD17B3", "PubChem SID": "SID152153441", "CDH1-null / parental viability ratio": 1.1, "CDH1-null viability vs mock": 1.16}
{"gene": "SEPHS1", "PubChem SID": "SID135621437", "CDH1-null / parental viability ratio": 0.69, "CDH1-null viability vs mock": 0.53}
{"gene": "KCNH5", "PubChem SID": "SID134311653", "CDH1-null / parental viability ratio": 1.11, "CDH1-null viability vs mock": 0.9}
{"gene": "SLC25A20", "PubChem SID": "SID135621381", "CDH1-null / parental viability ratio": 0.88, "CDH1-null viability vs mock": 0.84}
{"gene": "C2", "PubChem SID": "SID135621075", "CDH1-null / parental viability ratio": 1.27, "CDH1-null viability vs mock": 0.65}
{"gene": "DEFB121", "PubChem SID": "SID152147912", "CDH1-null / parental viability ratio": 1.47, "CDH1-null viability vs mock": 0.56}
{"gene": "JOSD1", "PubChem SID": "SID152155884", "CDH1-null / parental viability ratio": 1.04, "CDH1-null viability vs mock": 0.84}
{"gene": "CDK5RAP1", "PubChem SID": "SID56479268", "CDH1-null / parental viability ratio": 1, "CDH1-null viability vs mock": 0.54}
{"gene": "KLF14", "PubChem SID": "SID152152592", "CDH1-null / parental viability ratio": 0.98, "CDH1-null viability vs mock": 0.82}
{"gene": "SLC18A1", "PubChem SID": "SID152146856", "CDH1-null / parental viability ratio": 0.84, "CDH1-null viability vs mock": 0.76}
{"gene": "TPPP", "PubChem SID": "SID152151782", "CDH1-null / parental viability ratio": 1.41, "CDH1-null viability vs mock": 0.9}
{"gene": "DCPH1", "PubChem SID": "SID134318531", "CDH1-null / parental viability ratio": 1.17, "CDH1-null viability vs mock": 0.56}
{"gene": "FAM209B", "PubChem SID": "SID152154710", "CDH1-null / parental viability ratio": 1.04, "CDH1-null viability vs mock": 0.8}
{"gene": "F2", "PubChem SID": "SID134311297", "CDH1-null / parental viability ratio": 1.07, "CDH1-null viability vs mock": 0.92}

Reformatted: entries from further up
{"gene":"SLC18A1","PubChem SID":"SID152146856","CDH1-null / parental viability ratio":0.84,"CDH1-null viability vs mock":0.76}
{"gene":"TPPP","PubChem SID":"SID152151782","CDH1-null / parental viability ratio":1.41,"CDH1-null viability vs mock":0.9}
{"gene":"DCPH1","PubChem SID":"SID134318531","CDH1-null / parental viability ratio":1.17,"CDH1-null viability vs mock":0.56}
{"gene":"FAM209B","PubChem SID":"SID152154710","CDH1-null / parental viability ratio":1.04,"CDH1-null viability vs mock":0.8}
{"gene":"F2","PubChem SID":"SID134311297","CDH1-null / parental viability ratio":1.07,"CDH1-null viability vs mock":0.92}

Further reagents:
{"gene": "CLTB", "PubChem SID": "SID134310220", "CDH1-null / parental viability ratio": 0.84, "CDH1-null viability vs mock": 0.36}
{"gene": "MIEF2", "PubChem SID": "SID134321216", "CDH1-null / parental viability ratio": 1.88, "CDH1-null viability vs mock": 0.92}
{"gene": "AKAP5", "PubChem SID": "SID152152170", "CDH1-null / parental viability ratio": 0.82, "CDH1-null viability vs mock": 0.9}
{"gene": "HOXA10", "PubChem SID": "SID135621181", "CDH1-null / parental viability ratio": 1.13, "CDH1-null viability vs mock": 0.7}
{"gene": "TTC39A", "PubChem SID": "SID135624247", "CDH1-null / parental viability ratio": 0.83, "CDH1-null viability vs mock": 0.7}
{"gene": "CPT1C", "PubChem SID": "SID135621655", "CDH1-null / parental viability ratio": 0.89, "CDH1-null viability vs mock": 0.57}
{"gene": "DFFA", "PubChem SID": "SID135620828", "CDH1-null / parental viability ratio": 0.85, "CDH1-null viability vs mock": 0.7}
{"gene": "CEP170", "PubChem SID": "SID135624161", "CDH1-null / parental viability ratio": 0.94, "CDH1-null viability vs mock": 0.92}
{"gene": "ARPIN", "PubChem SID": "SID134322532", "CDH1-null / parental viability ratio": 0.98, "CDH1-null viability vs mock": 0.45}
{"gene": "SLC7A7", "PubChem SID": "SID152150248", "CDH1-null / parental viability ratio": 1, "CDH1-null viability vs mock": 0.98}
{"gene": "ROBO2", "PubChem SID": "SID152151678", "CDH1-null / parental viability ratio": 1.21, "CDH1-null viability vs mock": 0.99}
{"gene": "NPAT", "PubChem SID": "SID135623783", "CDH1-null / parental viability ratio": 1.08, "CDH1-null viability vs mock": 0.71}
{"gene": "RAB22A", "PubChem SID": "SID134323019", "CDH1-null / parental viability ratio": 0.93, "CDH1-null viability vs mock": 0.94}
{"gene": "RCC2", "PubChem SID": "SID152156671", "CDH1-null / parental viability ratio": 0.7, "CDH1-null viability vs mock": 0.6}
{"gene": "STAT2", "PubChem SID": "SID134316361", "CDH1-null / parental viability ratio": 1.09, "CDH1-null viability vs mock": 1.06}
{"gene": "TRAPPC6A", "PubChem SID": "SID134318474", "CDH1-null / parental viability ratio": 0.87, "CDH1-null viability vs mock": 0.88}
{"gene": "IMMT", "PubChem SID": "SID135623847", "CDH1-null / parental viability ratio": 0.93, "CDH1-null viability vs mock": 0.86}
{"gene": "CCDC12", "PubChem SID": "SID152156595", "CDH1-null / parental viability ratio": 1.22, "CDH1-null viability vs mock": 0.66}
{"gene": "POLR3K", "PubChem SID": "SID135622511", "CDH1-null / parental viability ratio": 1.39, "CDH1-null viability vs mock": 1.25}
{"gene": "ZNF626", "PubChem SID": "SID134320244", "CDH1-null / parental viability ratio": 1.28, "CDH1-null viability vs mock": 1.25}
{"gene": "BRD7", "PubChem SID": "SID135623959", "CDH1-null / parental viability ratio": 0.96, "CDH1-null viability vs mock": 0.8}
{"gene": "SLC16A10", "PubChem SID": "SID134312451", "CDH1-null / parental viability ratio": 0.9, "CDH1-null viability vs mock": 0.72}
{"gene": "EPB41L1", "PubChem SID": "SID134322859", "CDH1-null / parental viability ratio": 1.01, "CDH1-null viability vs mock": 0.84}
